Source: the supplement of paper PMC10331698
± gives the standard deviation of the averaged measurements. Small differences around the control level are noise.

How the values were obtained:
Experiment in all cases: level (log10 ratio to DMSO vehicle control); higher = higher biomarker level / cell amount than vehicle control
[1] = compound: C=C(C)C(=O)OCC(F)(F)C(F)(F)C(F)(F)F [2,2,3,3,4,4,4-Heptafluorobutyl methacrylate]; settings: 2200 nM; in DMSO
Experimental: (§1)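 BioMAP Diversity Plus panel of 12 human primary cell co-culture systems (3C, 4H, LPS, SAg, BT, BF4T, BE3C, CASM3C, HDF3CGF, KF3CT, MyoF, Mphg). Compounds were added 1 h before stimulation and left for 24 h (MyoF 48 h; BT 72 h for soluble read-outs or 6 d for IgG). Biomarkers were read by ELISA, cytotoxicity by SRB, PBMC viability and proliferation by Alamar Blue. Each well value was divided by the mean of 8 DMSO control wells on the same plate and log10 transformed; duplicate blinded samples were tested at 4 concentrations.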

[2] = compound: C=CC(=O)OCC(F)(F)C(F)(F)C(F)(F)C(F)(F)COC(=O)C=C [1H,1H,6H,6H-Perfluorohexane-1,6-diol diacrylate]; settings: 2200 nM; in DMSO
Experimental: as §1

[3] = compound: FC(F)(F)C(F)(F)C(F)(F)C(F)(F)C(F)(F)C(F)(F)C(F)(F)CCI [1-Iodo-1H,1H,2H,2H-perfluorononane]; settings: in DMSO
Experimental: as §1

[4] = compound: FC(F)(F)C(F)(F)C(F)(F)C(F)(F)C(F)(F)C(F)(F)C(F)(F)I [1-Iodopentadecafluoroheptane]; settings: in DMSO
Experimental: as §1

[5] = compound: FC(F)C(F)(F)COCC1CO1 [((2,2,3,3-Tetrafluoropropoxy)methyl)oxirane]; settings: 2200 nM; in DMSO
Experimental: as §1

[6] = compound: NC(=O)C(F)(F)C(F)(F)C(F)(F)C(F)(F)C(F)(F)C(F)(F)C(F)(F)F [Perfluorooctanamide]; settings: 2200 nM; in DMSO
Experimental: as §1

[7] = compound: O=C(O)C(F)(F)C(F)(F)C(F)(F)C(F)(F)C(F)(F)C(F)(F)C(F)(F)C(F)(F)C(F)(F)C(F)(F)F [Perfluoroundecanoic acid]; settings: in DMSO
Experimental: as §1

[8] = compound: O=C(O)C(F)(F)C(F)(F)C(F)(F)C(F)(F)C(F)(F)C(F)(F)C(F)(F)C(F)F [9-H-Perfluorononanoic acid]; settings: 2200 nM; in DMSO
Experimental: as §1

[9] = compound: O=C(O)C(F)(F)C(F)(F)C(F)(F)F [Perfluorobutanoic acid]; settings: 2200 nM; in DMSO
Experimental: as §1

[10] = compound: O=C(O)C(F)(F)C(F)(F)F [Perfluoropropanoic acid]; settings: 2200 nM; in DMSO
Experimental: as §1

[11] = compound: O=C(O)C(F)(F)C(F)(F)OC(F)(F)F [Perfluoro-3-methoxypropanoic acid]; settings: 2200 nM; in DMSO
Experimental: as §1

[12] = compound: O=C(O)C(F)(F)OC(F)(F)C(F)(F)OC(F)(F)C(=O)O [Perfluoro-3,6-dioxaoctane-1,8-dioic acid]; settings: 2200 nM; in DMSO
Experimental: as §1

[13] = compound: O=C(O)C(F)(F)OC(F)(F)C(F)(F)OC(F)(F)C(F)(F)C(F)(F)C(F)(F)F [Perfluoro-3,6-dioxadecanoic acid]; settings: 2200 nM; in DMSO
Experimental: as §1

[14] = compound: O=C(O)C=CC(F)(C(F)(F)F)C(F)(F)F [3-(Perfluoroisopropyl)-2-propenoic acid]; settings: in DMSO
Experimental: as §1

[15] = compound: O=P(O)(O)CCC(F)(F)C(F)(F)C(F)(F)C(F)(F)C(F)(F)C(F)(F)C(F)(F)C(F)(F)F [((Perfluorooctyl)ethyl)phosphonic acid]; settings: 2200 nM; in DMSO
Experimental: as §1

[16] = compound: O=S(=O)(Cl)C(F)(F)C(F)(F)C(F)(F)C(F)(F)C(F)(F)C(F)(F)C(F)(F)C(F)(F)F [Perfluoro-1-octanesulfonyl chloride]; settings: 2200 nM; in DMSO
Experimental: as §1

[17] = compound: OCC(F)(F)C(F)(F)C(F)(F)C(F)(F)C(F)(F)C(F)(F)C(F)(F)C(F)(F)C(F)(F)C(F)(F)C(F)(F)F [11:1 Fluorotelomer alcohol]; settings: in DMSO
Experimental: as §1

[18] = compound: OCCC(F)(F)C(F)(F)C(F)(F)C(F)(F)C(F)(F)C(F)(F)C(F)(F)C(F)(F)F [8:2 Fluorotelomer alcohol]; settings: 2200 nM; in DMSO
Experimental: as §1

Row | Test System | level (log10) [1] | level (log10) [2] | level (log10) ([3]; 740 nM) | level (log10) ([3]; 2200 nM) | level (log10) ([3]; 6700 nM) | level (log10) ([3]; 20000 nM) | level (log10) ([4]; 740 nM) | level (log10) ([4]; 2200 nM) | level (log10) ([4]; 6700 nM) | level (log10) ([4]; 20000 nM) | level (log10) [5] | level (log10) [6] | level (log10) ([7]; 740 nM) | level (log10) ([7]; 2200 nM) | level (log10) [8] | level (log10) [9] | level (log10) [10] | level (log10) [11] | level (log10) [12] | level (log10) [13] | level (log10) ([14]; 2200 nM) | level (log10) ([14]; 6700 nM) | level (log10) ([14]; 20000 nM) | level (log10) ([14]; 60000 nM) | level (log10) [15] | level (log10) [16] | level (log10) ([17]; 370 nM) | level (log10) ([17]; 1100 nM) | level (log10) ([17]; 3300 nM) | level (log10) ([17]; 10000 nM) | level (log10) [18]
1 | BF4T:PAI-I | 0.0015 ± 0.0064 | -0.009 ± 0.016 | 0.02 ± 0.025 | 0.015 ± 0.013 | -0.0005 ± 0.013 | -0.013 ± 0.011 | -0.005 ± 0.024 | -0.008 ± 0.0057 | -0.004 ± 0.0085 | -0.0235 ± 0.0092 | 0.006 ± 0.018 | 0.0045 ± 0.0064 | -0.0035 ± 0.0021 | 0.006 ± 0.018 | -0.0305 ± 0.018 | 0.019 ± 0.0028 | 0.0065 ± 0.022 | 0.0115 ± 0.019 | 0.008 ± 0.018 | -0.023 ± 0.016 | 0.0035 ± 0.022 | 0 ± 0.0099 | 0.001 ± 0.0014 | 0.0155 ± 0.026 | 0.012 ± 0.011 | 0.0095 ± 0.016 | -0.001 ± 0.014 | -0.003 ± 0.011 | -0.003 ± 0.0042 | 0.002 ± 0.027 | 0.0055 ± 0.013
2 | SAg:CXCL9/MIG | 0.0125 ± 0.016 | 0.0135 ± 0.03 | 0.0175 ± 0.011 | 0.003 ± 0.018 | -0.009 ± 0.0071 | 0.006 ± 0.0057 | -0.016 ± 0.0085 | -0.0035 ± 0.0021 | 0.006 ± 0.0071 | 0.02 ± 0.0042 | 0.0025 ± 0.0035 | -0.016 ± 0.017 | 0.0015 ± 0.012 | -0.0095 ± 0.0021 | -0.009 ± 0.016 | -0.0165 ± 0.023 | 0.007 ± 0.013 | 0.0045 ± 0.0035 | 0.0065 ± 0.00071 | -0.002 ± 0.025 | 0.0055 ± 0.023 | -0.0105 ± 0.025 | 0.013 | -0.006 ± 0.0085 | 0.0085 ± 0.012 | -0.0035 ± 0.0021 | 0.007 ± 0.0099 | -0.004 ± 0.03 | -0.0175 ± 0.035 | 0.012 ± 0.03 | 0.008 ± 0.0099
3 | 3C:CCL2/MCP-1 | 0.004 ± 0.028 | 0.0365 ± 0.049 | 0.0195 ± 0.032 | -0.0135 ± 0.0064 | -0.005 | 0.019 ± 0.011 | -0.0025 ± 0.067 | -0.0275 ± 0.03 | -0.0175 ± 0.005 | 0.023 ± 0.027 | 0.021 ± 0.0085 | 0.022 ± 0.088 | 0.0275 ± 0.077 | -0.0075 ± 0.043 | 0.014 ± 0.027 | -0.0045 ± 0.0078 | -0.0085 ± 0.015 | 0.0075 ± 0.047 | 0.0075 ± 0.029 | 0.019 ± 0.0085 | 0.018 ± 0.035 | 0.0025 ± 0.022 | -0.009 ± 0.0014 | 0.019 ± 0.02 | 0.025 ± 0.031 | -0.003 ± 0.03 | -0.001 ± 0.031 | -0.0005 ± 0.0064 | -0.007 ± 0.021 | 0.003 ± 0.04 | 0.0015 ± 0.018
4 | MyoF:Collagen IV | -0.001 ± 0.03 | -0.0135 ± 0.043 | 0.03 ± 0.016 | 0.03 ± 0.0057 | 0.027 ± 0.0042 | 0.082 ± 0.018 | 0.0675 ± 0.0035 | 0.0315 ± 0.081 | 0.0705 ± 0.049 | 0.279 ± 0.09 | 0.0075 ± 0.011 | -0.0155 ± 0.069 | 0.036 ± 0.031 | 0.0705 ± 0.053 | 0.061 ± 0.065 | 0.0085 ± 0.074 | 0.02 ± 0.033 | -0.008 ± 0.031 | -0.0065 ± 0.035 | 0.0165 ± 0.0092 | 0.018 ± 0.058 | -0.01 ± 0.023 | 0.0025 ± 0.0078 | 0.0205 ± 0.022 | -0.0025 ± 0.037 | 0.001 ± 0.0071 | -0.0405 ± 0.029 | -0.0365 ± 0.05 | -0.0255 ± 0.028 | -0.01 ± 0.028 | 0.004 ± 0.0028
